B1: SLC4A1 (protein, UniProt P02730 1-911, looked up)
Band 3 anion transport protein: MEELQDDYEDMMEENLEQEEYEDPDIPESQMEEPAAHDTEATATDYHTTSHPGTHKVYVELQELVMDEKNQELRWMEAARWVQLEENLGENGAWGRPHLSHLTFWSLLELRRVFTKGTVLLDLQETSLAGVANQLLDRFIFEDQIRPQDREELLRALLLKHSHAGELEALGGVKPAVLTRSGDPSQPLLPQHSSLETQLFCEQGDGGTEGHSPSGILEKIPPDSEATLVLVGRADFLEQPVLGFVRLQEAAELEAVELPVPIRFLFVLLGPEAPHIDYTQLGRAAATLMSERVFRIDAYMAQSRGELLHSLEGFLDCSLVLPPTDAPSEQALLSLVPVQRELLRRRYQSSPAKPDSSFYKGLDLNGGPDDPLQQTGQLFGGLVRDIRRRYPYYLSDITDAFSPQVLAAVIFIYFAALSPAITFGGLLGEKTRNQMGVSELLISTAVQGILFALLGAQPLLVVGFSGPLLVFEEAFFSFCETNGLEYIVGRVWIGFWLILLVVLVVAFEGSFLVRFISRYTQEIFSFLISLIFIYETFSKLIKIFQDHPLQKTYNYNVLMVPKPQGPLPNTALLSLVLMAGTFFFAMMLRKFKNSSYFPGKLRRVIGDFGVPISILIMVLVDFFIQDTYTQKLSVPDGFKVSNSSARGWVIHPLGLRSEFPIWMMFASALPALLVFILIFLESQITTLIVSKPERKMVKGSGFHLDLLLVVGMGGVAALFGMPWLSATTVRSVTHANALTVMGKASTPGAAAQIQEVKEQRISGLLVAVLVGLSILMEPILSRIPLAVLFGIFLYMGVTSLSGIQLFDRILLLFKPPKYHPDVPYVKRVKTWRMHLFTGIQIICLAVLWVVKSTPASLALPFVLILTVPLRRVLLPLIFRNVELQCLDADDAKATFDEEEGRDEYDEVAMPV
B2: MPIG6B (protein, UniProt O95866 18-241, looked up)
Megakaryocyte and platelet …: NPGASLDGRPGDRVNLSCGGVSHPIRWVWAPSFPACKGLSKGRRPILWASSSGTPTVPPLQPFVGRLRSLDSGIRRLELLLSAGDSGTFFCKGRHEDESRTVLHVLGDRTYCKAPGPTHGSVYPQLLIPLLGAGLVLGLGALGLVWWLHRRLPPQPIRPLPRFAPLVKTEPQRPVKEEEPKIPGDLDQEPSLLYADLDHLALSRPRRLSTADPADASTIYAVVV
B3: ANO6 (protein, UniProt Q4KMQ2 1-910, looked up)
Anoctamin-6: MKKMSRNVLLQMEEEEDDDDGDIVLENLGQTIVPDLGSLESQHDFRTPEFEEFNGKPDSLFFNDGQRRIDFVLVYEDESRKETNKKGTNEKQRRKRQAYESNLICHGLQLEATRSVLDDKLVFVKVHAPWEVLCTYAEIMHIKLPLKPNDLKNRSSAFGTLNWFTKVLSVDESIIKPEQEFFTAPFEKNRMNDFYIVDRDAFFNPATRSRIVYFILSRVKYQVINNVSKFGINRLVNSGIYKAAFPLHDCKFRRQSEDPSCPNERYLLYREWAHPRSIYKKQPLDLIRKYYGEKIGIYFAWLGYYTQMLLLAAVVGVACFLYGYLNQDNCTWSKEVCHPDIGGKIIMCPQCDRLCPFWKLNITCESSKKLCIFDSFGTLVFAVFMGVWVTLFLEFWKRRQAELEYEWDTVELQQEEQARPEYEARCTHVVINEITQEEERIPFTAWGKCIRITLCASAVFFWILLIIASVIGIIVYRLSVFIVFSAKLPKNINGTDPIQKYLTPQTATSITASIISFIIIMILNTIYEKVAIMITNFELPRTQTDYENSLTMKMFLFQFVNYYSSCFYIAFFKGKFVGYPGDPVYWLGKYRNEECDPGGCLLELTTQLTIIMGGKAIWNNIQEVLLPWIMNLIGRFHRVSGSEKITPRWEQDYHLQPMGKLGLFYEYLEMIIQFGFVTLFVASFPLAPLLALVNNILEIRVDAWKLTTQFRRLVPEKAQDIGAWQPIMQGIAILAVVTNAMIIAFTSDMIPRLVYYWSFSVPPYGDHTSYTMEGYINNTLSIFKVADFKNKSKGNPYSDLGNHTTCRYRDFRYPPGHPQEYKHNIYYWHVIAAKLAFIIVMEHVIYSVKFFISYAIPDVSKRTKSKIQREKYLTQKLLHENHLKDMTKNMGVIAERMIEAVDNNLRPKSE
B4: GP1BB (protein, UniProt P13224 26-206, looked up)
Platelet glycoprotein Ib beta …: CPAPCSCAGTLVDCGRRGLTWASLPTAFPVDTTELVLTGNNLTALPPGLLDALPALRTAHLGANPWRCDCRLVPLRAWLAGRPERAPYRDLRCVAPPALRGRLLPYLAEDELRAACAPGPLCWGALAAQLALLGLGLLHALLLVLLLCRLRRLRARARARAAARLSLTDPLVAERAGTDES
B5: SLC25A11 (protein, UniProt Q02978 2-314, looked up)
Mitochondrial …: AATASAGAGGIDGKPRTSPKSVKFLFGGLAGMGATVFVQPLDLVKNRMQLSGEGAKTREYKTSFHALTSILKAEGLRGIYTGLSAGLLRQATYTTTRLGIYTVLFERLTGADGTPPGFLLKAVIGMTAGATGAFVGTPAEVALIRMTADGRLPADQRRGYKNVFNALIRITREEGVLTLWRGCIPTMARAVVVNAAQLASYSQSKQFLLDSGYFSDNILCHFCASMISGLVTTAASMPVDIAKTRIQNMRMIDGKPEYKNGLDVLFKVVRYEGFFSLWKGFTPYYARLGPHTVLTFIFLEQMNKAYKRLFLSG
B6: NECTIN1 (protein, UniProt Q15223 31-517, looked up)
Nectin-1: QVVQVNDSMYGFIGTDVVLHCSFANPLPSVKITQVTWQKSTNGSKQNVAIYNPSMGVSVLAPYRERVEFLRPSFTDGTIRLSRLELEDEGVYICEFATFPTGNRESQLNLTVMAKPTNWIEGTQAVLRAKKGQDDKVLVATCTSANGKPPSVVSWETRLKGEAEYQEIRNPNGTVTVISRYRLVPSREAHQQSLACIVNYHMDRFKESLTLNVQYEPEVTIEGFDGNWYLQRMDVKLTCKADANPPATEYHWTTLNGSLPKGVEAQNRTLFFKGPINYSLAGTYICEATNPIGTRSGQVEVNITEFPYTPSPPEHGRRAGPVPTAIIGGVAGSILLVLIVVGGIVVALRRRRHTFKGDYSTKKHVYGNGYSKAGIPQHHPPMAQNLQYPDDSDDEKKAGPLGGSSYEEEEEEEEGGGGGERKVGGPHPKYDEDAKRPYFTVDEAEARQDGYGDRTLGYQYDPEQLDLAENMVSQNDGSFISKKEWYV
B7: RNF216 (protein, UniProt Q9NWF9 1-866, looked up)
E3 ubiquitin-protein ligase …: MEEGNNNEEVIHLNNFHCHRGQEWINLRDGPITISDSSDEERIPMLVTPAPQQHEEEDLDDDVILTEDDSEDDYGEFLDLGPPGISEFTKPSGQTEREPKPGPSHNQAANDIVNPRSEQKVIILEEGSLLYTESDPLETQNQSSEDSETELLSNLGESAALADDQAIEEDCWLDHPYFQSLNQQPREITNQVVPQERQPEAELGRLLFQHEFPGPAFPRPEPQQGGISGPSSPQPAHPLGEFEDQQLASDDEEPGPAFPMQESQEPNLENIWGQEAAEVDQELVELLVKETEARFPDVANGFIEEIIHFKNYYDLNVLCNFLLENPDYPKREDRIIINPSSSLLASQDETKLPKIDFFDYSKLTPLDQRCFIQAADLLMADFKVLSSQDIKWALHELKGHYAITRKALSDAIKKWQELSPETSGKRKKRKQMNQYSYIDFKFEQGDIKIEKRMFFLENKRRHCRSYDRRALLPAVQQEQEFYEQKIKEMAEHEDFLLALQMNEEQYQKDGQLIECRCCYGEFPFEELTQCADAHLFCKECLIRYAQEAVFGSGKLELSCMEGSCTCSFPTSELEKVLPQTILYKYYERKAEEEVAAAYADELVRCPSCSFPALLDSDVKRFSCPNPHCRKETCRKCQGLWKEHNGLTCEELAEKDDIKYRTSIEEKMTAARIRKCHKCGTGLIKSEGCNRMSCRCGAQMCYLCRVSINGYDHFCQHPRSPGAPCQECSRCSLWTDPTEDDEKLIEEIQKEAEEEQKRKNGENTFKRIGPPLEKPVEKVQRVEALPRPVPQNLPQPQMPPYAFAHPPFPLPPVRPVFNNFPLNMGPIPAPYVPPLPNVRVNYDFGPIHMPLEHNLPMHFGPQPRHRF
B8: ADAMTS19 (protein, UniProt Q8TE59 323-1213, looked up)
A disintegrin and …: YSYKLPQEYNIETVVVADPAMVSYHGADAARRFILTILNMVFNLFQHKSLSVQVNLRVIKLILLHETPPELYIGHHGEKMLESFCKWQHEEFGKKNDIHLEMSTNWGEDMTSVDAAILITRKDFCVHKDEPCDTVGIAYLSGMCSEKRKCIIAEDNGLNLAFTIAHEMGHNMGINHDNDHPSCADGLHIMSGEWIKGQNLGDVSWSRCSKEDLERFLRSKASNCLLQTNPQSVNSVMVPSKLPGMTYTADEQCQILFGPLASFCQEMQHVICTGLWCKVEGEKECRTKLDPPMDGTDCDLGKWCKAGECTSRTSAPEHLAGEWSLWSPCSRTCSAGISSRERKCPGLDSEARDCNGPRKQYRICENPPCPAGLPGFRDWQCQAYSVRTSSPKHILQWQAVLDEEKPCALFCSPVGKEQPILLSEKVMDGTSCGYQGLDICANGRCQKVGCDGLLGSLAREDHCGVCNGNGKSCKIIKGDFNHTRGAGYVEVLVIPAGARRIKVVEEKPAHSYLALRDAGKQSINSDWKIEHSGAFNLAGTTVHYVRRGLWEKISAKGPTTAPLHLLVLLFQDQNYGLHYEYTIPSDPLPENQSSKAPEPLFMWTHTSWEDCDATCGGGERKTTVSCTKIMSKNISIVDNEKCKYLTKPEPQIRKCNEQPCQTRWMMTEWTPCSRTCGKGMQSRQVACTQQLSNGTLIRARERDCIGPKPASAQRCEGQDCMTVWEAGVWSECSVKCGKGIRHRTVRCTNPRKKCVLSTRPREAEDCEDYSKCYVWRMGDWSKCSITCGKGMQSRVIQCMHKITGRHGNECFSSEKPAAYRPCHLQPCNEKINVNTITSPRLAALTFKCLGDQWPVYCRVIREKNLCQDMRWYQRCCETCRDFYAQKLQQKS

The molecules below were run on DYT1 patient plasma derived EVs (assay: Plasma-derived EV proteomics (ExoQuick ULTRA, DIA LC/MS/MS), DYT1 vs Healthy Controls). Conditions: DYT1 patients as compared to healthy controls.
Design: species or system human
Procedure: Data was obtained for extracellular vesicles using previously acquired samples. The ExoQuick® ULTRA EV Isolation System was used to fractionate and enrich EVs from plasma. Isolated plasma EV samples were then submitted to proteomic analysis by the Duke Proteomics and Metabolomics Core Facility (DPMCF). At the DPMCF, quantitative (LC/MS/MS) was performed on 500 ng of each sample, using an EvoSep One UPLC system coupled to a Thermo Orbitrap Astral high-resolution accurate mass tandem mass spectrometer (Thermo). Briefly, the sample was eluted directly from an Evotip which was subjected to a low organic wash and then subjected to an analytical separation using a 1.7 μm EvoSep 150 um ID×15 cm endurance (EveoSep) column running an SPD30 gradient from approximately 5 to 30% acetonitrile with 0.1% formic acid with a column temperature of 50 C. Data collection on the Orbitrap Astral mass spectrometer was performed in a data-independent acquisition (DIA) mode of acquisition with a r=240,000 (@m/z 200) full MS scan from m/z 380-980 with a target AGC value of 4e5 ions. Fixed DIA, windows of 4 m/z from m/z 380 to 980 DIA MS/MS scans were acquired in the Astral with a target AGC value of 5e4 and a max fill time of 6 ms. HCD collision energy setting of 27% was used for all MS2 scans.

Molecule | Log2FC
B1 | 2.2980
B2 | 1.8244

Same assay, conditions: Hs. Plasma EVs (DYT1/WT)

Molecule | Directionality
B3 | DOWN

Same assay, conditions: Hs. Plasma EVs (DYT1/WT); protein level, human patient derived EVs by genotype

Molecule | Log2_FC
B3 | -0.7131

Same assay, conditions: directionality of protein change, human plasma derived EVs, DYT1 vs WT(HC)

Molecule | Hs. Plasma EVs (DYT1/WT)
B3 | DOWN

Same assay, conditions: protein abundance, DYT1 patients

Molecule | Mean DYT1
B1 | 9.918
B4 | 6.766
B5 | −1.129
B6 | 6.641
B7 | 4.837
B8 | 10.077
B2 | 7.965
B3 | 7.713

Same assay, conditions: protein abundance, healthy controls (HC)

Molecule | Mean HC
B1 | 7.62
B4 | 5.43
B5 | 0.20
B6 | 4.67
B7 | 2.76
B8 | 8.43
B2 | 6.14
B3 | 9.33

Source: patent publication US20260266848A1, “COMPOSITIONS AND METHODS FOR DIAGNOSING AND TREATING DYSTONIA” (Duke University, priority 2023, published 2026)
